Publication PMC4552561
No constants are given. Whether binding was seen depends on the method and setting. For part of these data: In cells and extracts the contact can be indirect. Some entries that bind do so weakly or less than the wild type.

Amino acid sequences for entries named in this document (tags omitted). A change or cut given only in a name is not applied to a line headed by its entry. Residues count along the entry.
UniProt Q9GZQ4: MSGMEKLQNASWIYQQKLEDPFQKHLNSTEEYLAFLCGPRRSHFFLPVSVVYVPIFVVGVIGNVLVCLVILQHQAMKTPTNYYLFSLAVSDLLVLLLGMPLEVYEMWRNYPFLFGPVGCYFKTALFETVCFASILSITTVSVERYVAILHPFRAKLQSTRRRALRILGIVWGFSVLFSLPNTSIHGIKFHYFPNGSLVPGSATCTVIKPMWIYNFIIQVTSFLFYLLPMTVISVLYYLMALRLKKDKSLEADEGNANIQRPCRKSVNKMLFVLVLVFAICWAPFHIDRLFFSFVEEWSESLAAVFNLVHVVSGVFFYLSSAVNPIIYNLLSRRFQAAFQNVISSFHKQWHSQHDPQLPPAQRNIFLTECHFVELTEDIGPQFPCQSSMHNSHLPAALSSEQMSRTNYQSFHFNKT
UniProt Q9HB89, residues 17-426: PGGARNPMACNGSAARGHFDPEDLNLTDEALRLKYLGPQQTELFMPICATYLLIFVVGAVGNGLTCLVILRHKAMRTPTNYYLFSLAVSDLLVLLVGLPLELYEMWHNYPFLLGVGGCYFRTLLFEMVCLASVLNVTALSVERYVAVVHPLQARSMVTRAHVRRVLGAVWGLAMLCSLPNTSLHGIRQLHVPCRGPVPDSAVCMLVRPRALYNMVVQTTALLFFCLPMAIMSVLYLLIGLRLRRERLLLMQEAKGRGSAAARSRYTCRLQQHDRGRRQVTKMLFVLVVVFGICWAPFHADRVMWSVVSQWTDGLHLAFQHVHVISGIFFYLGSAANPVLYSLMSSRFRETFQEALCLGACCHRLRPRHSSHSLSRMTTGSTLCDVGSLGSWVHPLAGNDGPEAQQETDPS
UniProt P22888, residues 27-699: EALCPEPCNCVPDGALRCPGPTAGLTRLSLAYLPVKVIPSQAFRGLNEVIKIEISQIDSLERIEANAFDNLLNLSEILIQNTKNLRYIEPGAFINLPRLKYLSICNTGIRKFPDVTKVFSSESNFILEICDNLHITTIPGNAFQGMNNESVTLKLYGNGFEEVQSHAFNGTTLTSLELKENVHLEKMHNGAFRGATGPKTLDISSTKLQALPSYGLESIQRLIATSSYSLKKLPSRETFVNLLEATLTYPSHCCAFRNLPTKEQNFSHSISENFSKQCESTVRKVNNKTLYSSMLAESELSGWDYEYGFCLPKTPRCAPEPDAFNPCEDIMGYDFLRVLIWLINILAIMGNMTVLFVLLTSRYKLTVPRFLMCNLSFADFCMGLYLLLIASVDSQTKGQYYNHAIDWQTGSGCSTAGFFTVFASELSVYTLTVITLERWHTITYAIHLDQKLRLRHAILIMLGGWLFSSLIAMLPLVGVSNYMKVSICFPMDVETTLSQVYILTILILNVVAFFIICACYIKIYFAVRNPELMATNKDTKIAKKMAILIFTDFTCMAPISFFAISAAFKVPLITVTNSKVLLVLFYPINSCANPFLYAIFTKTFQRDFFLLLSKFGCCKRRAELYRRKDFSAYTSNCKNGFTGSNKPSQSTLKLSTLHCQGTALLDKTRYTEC

Legend:
GFP-NMUR2 (human) = GFP-NMUR2 (human) (UniProt Q9GZQ4); assay: FRET or BRET; acceptor photobleaching FRET by confocal microscopy; eGFP-tagged and DsRed-tagged receptors co-expressed in HEK-293T cells, fixed; DsRed bleached at 543 nm for 3 mins
[1] = target: N-terminal FLAG-tagged NMUR1 (human) (UniProt Q9HB89); assay: non-reducing and reducing SDS-PAGE with Western blot; extracts of 293T cells transfected with one FLAG-tagged receptor, extracted in mild conditions without boiling; non-reducing against reducing conditions; blot against the FLAG epitope; bands around 80 kDa and 40 kDa
[2] = target: N-terminal FLAG-tagged NMUR2 (human) (UniProt Q9GZQ4); assay: as above

“DsRed-luteinizing hormone receptor (from UniProt P22888 27-699)” was tested, and the binding (GFP-NMUR2 (human)) was “no binding”.

For “N-terminal FLAG-tagged NMUR1 (from UniProt Q9HB89 17-426) (receptor)”, the binding [1] was “binds”.

In the case of “N-terminal FLAG-tagged NMUR2 (from UniProt Q9GZQ4 19-415) (receptor)”, the binding [2] is reported as “binds”.
